PubChem BioAssay AID1053208, Peter MacCallum Cancer Centre – 2014
Test: 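Find knock-downs that sensitise mouse osteosarcoma cells to doxorubicin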 (primary screen). Cell system: mouse osteosarcoma cells, early-passage culture from an engineered mouse model of fibroblastic bone tumour. Reagents: siRNA pool against mouse genes, 40 nM. Time to read-out: about 120 h (48 h before drug, then 72 h with drug). Treatment: doxorubicin 100 nM for 72 h, roughly 30-40% inhibitory dose. Measured: 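Viability read as ATP luminescence after 72 h of 100 nM doxorubicin or none, duplicate wells averaged, scaled to non-targeting siRNA, then expressed as robust z-scores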. Direction: viability z-score with doxorubicin: higher = more viable cells under doxorubicin; viability z-score without drug: higher = more viable cells with knock-down alone. Rule for the call: 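a pool counts as active when its viability z-score with doxorubicin is -2 or below and its z-score without drug lies between -2 and 2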.
This is one part, drawn at random, of about 17,000 reagents. 788 of them (4.7%) count as active. 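Calls rest on z-score classes alone; an extra cut-off of viability at most 70% of control was not applied to them.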 Entries without a mark were called inactive. The numbers tell different reagents against one gene apart. Further read-outs or replicates are left out here. Reagent sequences are not shown.

target | reagent no. | combined z-score class | viability z-score with doxorubicin | viability z-score without drug
Llgl2 | 1 | no change with or without drug | -1.35 | -0.67
Cog3 | 1 | high cell count without drug only | 1.69 | 2.53
Drc5 | 1 | high cell count with doxorubicin only | 2.02 | -0.34
Reep2 | 1 | no change with or without drug | 0.45 | -0.17
Tor1aip1 | 1 | no change with or without drug | -1.91 | -1.85
Frk | 1 | no change with or without drug | 0 | -0.17
Gldn | 1 | no change with or without drug | 1.69 | 0.51
Chrnb2 | 1 | no change with or without drug | -1.57 | 0.34
Fam89b | 1 | no change with or without drug | 0.9 | -0.17
Cnot9 | 1 | no change with or without drug | -0.9 | -0.17
Kat8 | 1 | no change with or without drug | 0.67 | -0.17
Fam241b | 1 | no change with or without drug | -0.22 | 0.51
Wbp11 | 1 | high cell count with doxorubicin only | 2.47 | 1.69
Mbd4 | 1 | no change with or without drug | 1.8 | 0.34
Ms4a5 | 1 | no change with or without drug | -0.67 | -0.17
Vmn1r35 | 1 | no change with or without drug | -0.67 | -0.17
Asb9 | 1 | no change with or without drug | 0.34 | -0.84
Scaf8 | 1 | no change with or without drug | 0.56 | 0.51
Scaf8 | 2 | no change with or without drug | 0.79 | 0.34
Slco3a1 | 1 | no change with or without drug | -0.22 | -1.18
Xpnpep1 | 1 | no change with or without drug | 0.22 | 0.51
Fuom | 1 | no change with or without drug | 0.9 | 1.69
Pex11b | 1 | no change with or without drug | 1.57 | 1.18

Continued, starting with the last 6 of the part before.
target | reagent no. | combined z-score class | viability z-score with doxorubicin | viability z-score without drug
Scaf8 | 1 | no change with or without drug | 0.56 | 0.51
Scaf8 | 2 | no change with or without drug | 0.79 | 0.34
Slco3a1 | 1 | no change with or without drug | -0.22 | -1.18
Xpnpep1 | 1 | no change with or without drug | 0.22 | 0.51
Fuom | 1 | no change with or without drug | 0.9 | 1.69
Pex11b | 1 | no change with or without drug | 1.57 | 1.18
Cdh7 | 1 | no change with or without drug | -0.45 | -0.67
Hbq1a | 1 | no change with or without drug | 0.79 | -0.51
E130113K22RIK | 1 | no change with or without drug | -1.35 | 0.84
Cyp4a10 | 1 | no change with or without drug | 0.22 | 0.17
B3galt5 | 1 | no change with or without drug | -0.45 | -0.17
Ykt6 | 1 | no change with or without drug | 0.22 | 0.51
A830019P07Rik | 1 | no change with or without drug | 0.11 | -0.84
Crybb1 | 1 | low cell count with doxorubicin only (active) | -2.25 | -1.18
Cul2 | 1 | no change with or without drug | -1.35 | -1.52
Ppp3cb | 1 | no change with or without drug | 1.35 | 0.84
Per3 | 1 | low cell count with doxorubicin only (active) | -2.47 | -1.18
Magel2 | 1 | no change with or without drug | -0.22 | 0.84
Tmprss3 | 1 | no change with or without drug | -1.35 | -0.17
Akap5 | 1 | no change with or without drug | -0.67 | -0.51
Or7e169 | 1 | no change with or without drug | 0.22 | 0.51
Grm4 | 1 | no change with or without drug | 0.56 | 1.01
Ergic1 | 1 | no change with or without drug | -0.67 | -1.52
Nlgn2 | 1 | no change with or without drug | -0.45 | -0.67
Xpc | 1 | no change with or without drug | 0.34 | 0.67
Agl | 1 | no change with or without drug | 0.45 | 0.17
Nkx2-4 | 1 | no change with or without drug | -0.67 | -1.18
Enpp2 | 1 | no change with or without drug | -0.56 | 0.84
Tulp4 | 1 | no change with or without drug | 0.34 | -0.17
Mb | 1 | no change with or without drug | -1.12 | -0.84
Zfp428 | 1 | no change with or without drug | -0.22 | 0.67
Sirpb1a | 1 | no change with or without drug | -0.56 | -1.01
Pcdhb1 | 1 | no change with or without drug | 0.34 | 0.51
